Literature values in US20230212279A1, “TREATMENT AND PREVENTION OF DISEASE CAUSED BY TYPE IV COLLAGEN DYSFUNCTION” (Singapore Health Services PTE, LTD., priority 2020, published 2023).
At least one structure is not confirmed: it was looked up by name or label, or the drawing left a doubt.

Experiments:
[1] = system: Col4a3-/- mice; conditions: Col4a3-/- mice given Olmesartan; cited from earlier work
[2] = system: rheumatoid synovial cells; conditions: rheumatoid synovial cells upon treatment; cited from earlier work

SMILES	caspase activity [1]	expression of IL-11 [2]
CCCc1nc(C(C)(C)O)c(C(=O)O)n1Cc1ccc(-c2ccccc2-c2nnn[nH]2)cc1 [Olmesartan]	reduced	–
C[C@@H]1C[C@H]2[C@@H]3CCC4=CC(=O)C=C[C@]4(C)[C@@]3(F)[C@@H](O)C[C@]2(C)[C@@]1(O)C(=O)CO [dexamethasone]	–	reduction
